{"source": "the supplement of paper PMC8256030", "note": "Where “and” joins values, the source holds several entries; their conditions need not be identical. Equal values may be shown once. Some of the results follow. Single values are uncertain here, since repeats match poorly.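 HEK293T cells were given each compound shortly before transfection with a reporter in which red mCherry is followed by the SARS-CoV-2 frameshift element and then GFP in the −1 frame, so GFP appears only after frameshifting.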"}
{"system": "HEK293T", "assay": "percent viability (nuclei count) relative to control; higher = more viable cells", "conditions": "10 µM; 24 h"}
{"molecule": "COc1cc([C@@H]2c3cc4c(cc3[C@@H](O[C@@H]3O[C@@H]5CO[C@@H](c6cccs6)O[C@H]5[C@H](O)[C@H]3O)[C@H]3COC(=O)[C@H]23)OCO4)cc(OC)c1O", "note": "[teniposide]", "percent viability": "53.2%"}
{"molecule": "O=C1CN(/N=C/c2ncc(-c3ccc(Br)cc3)o2)C(=O)N1", "note": "[azumolene]", "percent viability": "372%"}
{"molecule": "C[N+](C)(C)CCOC(=O)CCC(=O)OCC[N+](C)(C)C", "note": "[Succinylcholine]", "percent viability": "148%"}
{"molecule": "CCc1oc2ccccc2c1C(=O)c1ccc(O)cc1", "note": "[benzarone]", "percent viability": "41.7%"}
{"molecule": "O=C(c1ccccc1)c1ccc2n1CCC2C(=O)O", "note": "(stereo not given)", "percent viability": "276%"}
{"molecule": "CCC(=O)O[C@@H]1CC(=O)O[C@H](C)C/C=C/C=C/[C@H](O)[C@H](C)C[C@H](CC=O)[C@H](O[C@@H]2O[C@H](C)[C@@H](O[C@H]3C[C@@](C)(O)[C@@H](OC(=O)CC)[C@H](C)O3)[C@H](N(C)C)[C@H]2O)[C@H]1OC", "note": "[midecamycin]", "percent viability": "229%"}
{"molecule": "Cc1ncsc1CCCCl", "note": "[cloprothiazole]", "percent viability": "132%"}
{"molecule": "O=C1NC(=O)C(Cc2ccc3cc(OCc4ccccc4F)ccc3c2)S1", "note": "(stereo not given) [netoglitazone]", "percent viability": "160%"}
{"molecule": "CN1CCC(=C2c3ccccc3CCn3c(C=O)cnc32)CC1", "note": "[alcaftadine]", "percent viability": "291%"}
{"molecule": "Cc1nc(Nc2ncc(C(=O)Nc3c(C)cccc3Cl)s2)cc(N2CCN(CCO)CC2)n1", "note": "[dasatinib]", "percent viability": "8.12%"}
{"molecule": "CN(C)[C@@H]1C(=O)C(C(N)=O)=C(O)[C@@]2(O)C(=O)C3=C(O)c4c(O)ccc(Cl)c4[C@@H](O)[C@H]3C[C@@H]12", "note": "[Demeclocycline]", "percent viability": "66.3%"}
{"molecule": "O=C(Nc1cccc2c(=O)cc(-c3nnn[nH]3)oc12)c1ccc(OCCCCc2ccccc2)cc1", "note": "[pranlukast]", "percent viability": "154%"}
{"molecule": "CCCC1O[C@@H]2C[C@H]3[C@@H]4CCC5=CC(=O)C=C[C@]5(C)[C@H]4[C@@H](O)C[C@]3(C)[C@]2(C(=O)CO)O1", "note": "(stereo not given in full) [budesonide]", "percent viability": "200%"}
{"molecule": "CC(C)NCC(O)COc1ccc(COCCOC(C)C)cc1", "note": "(stereo not given)", "percent viability": "212%"}
{"molecule": "C[C@H]1[C@H](OC(=O)CCC(=O)O)O[C@@H]2O[C@@]3(C)CC[C@H]4[C@H](C)CC[C@@H]1[C@@]24OO3", "note": "[Artesunate]", "percent viability": "53.8%"}
{"molecule": "O=C(NCCCN1CCOCC1)c1ccc(Cl)cc1", "note": "[eprobemide]", "percent viability": "64.1%"}
{"molecule": "CC(C)(N)C(=O)N[C@H](COCc1ccccc1)C(=O)N1CCC2(CC1)CN(S(C)(=O)=O)c1ccccc12", "note": "[ibutamoren]", "percent viability": "216%"}
{"molecule": "C#CC1(O)CC[C@H]2[C@@H]3CCC4=CC(=O)CC[C@@H]4[C@H]3CC[C@@]21CC", "note": "(stereo not given in full) [norgestrel]", "percent viability": "152%"}
{"molecule": "Cc1cnc(NC(=O)C2=C(O)c3ccccc3S(=O)(=O)N2C)s1", "note": "[Meloxicam]", "percent viability": "218%"}
{"molecule": "COCCCN1CCN(c2ccccc2OC)CC1", "note": "[dimetholizine]", "percent viability": "209%"}
{"molecule": "COc1cc(Cc2cnc(N)nc2N)cc(OC)c1Br", "note": "[brodimoprim]", "percent viability": "374%"}
{"molecule": "CC(=O)O[C@@H]1C[C@@H]2CC[C@@]1(C)C2(C)C", "percent viability": "240%"}
{"molecule": "CN(C)CCCC1(c2ccc(F)cc2)OCc2cc(C#N)ccc21", "note": "(stereo not given) [citalopram]", "percent viability": "286% and 188%"}
{"molecule": "CCCc1c(SCCCOc2ccc(C(C)=O)c(OCCCC(=O)O)c2CCC)ccc(C(C)=O)c1O", "note": "[tipelukast]", "percent viability": "152%"}
{"molecule": "O=C(O)c1ccccc1-c1c2ccc(=O)cc-2oc2cc(O)ccc12", "percent viability": "335%"}
{"molecule": "C#C[C@]1(OC(C)=O)CC[C@H]2[C@@H]3CCC4=C/C(=N/O)CC[C@@H]4[C@H]3CC[C@@]21CC", "note": "[Ortho-Prefest]", "percent viability": "100%"}
{"molecule": "O=C(O)c1ccccc1Nc1cccc(Cl)c1Cl", "note": "[clofenamic acid]", "percent viability": "133%"}
{"molecule": "[N-]=[N+]=NCC(=O)N[C@H](CO)[C@H](O)c1ccc([N+](=O)[O-])cc1", "note": "[azidamfenicol]", "percent viability": "206%"}
{"molecule": "CC(C)n1c(/C=C/[C@@H](O)C[C@@H](O)CC(=O)O)c(-c2ccc(F)cc2)c2ccccc21", "percent viability": "61.2%"}
{"molecule": "CCCCC(CC)CCC(CC(C)C)OS(=O)(=O)O", "note": "(stereo not given)", "percent viability": "243%"}
{"molecule": "CC(C)NCC(O)COc1cccc2c1N(C(=O)c1cccnc1)CCC2", "note": "(stereo not given) [nicainoprol]", "percent viability": "208%"}
{"molecule": "CN1C(C)(C)CCCC1(C)C", "note": "[pempidine]", "percent viability": "221%"}
{"molecule": "Cc1cc2c(s1)Nc1ccccc1N=C2N1CCN(C)CC1", "note": "[Olanzapine]", "percent viability": "152%"}
{"molecule": "CO/N=C(\\C(=O)N[C@@H]1C(=O)N2C(C(=O)O)=C(CSc3nc(=O)c(O)nn3C)CS[C@H]12)c1csc(N)n1", "percent viability": "304%"}
{"molecule": "CC[C@]1(O)C[C@@H]2CN(CCc3c([nH]c4ccccc34)[C@@](C(=O)OC)(c3cc4c(cc3OC)N(C)[C@H]3[C@@](O)(C(=O)OC)[C@H](OC(C)=O)[C@]5(CC)C=CCN6CC[C@]43[C@@H]65)C2)C1", "note": "[vinblastine]", "percent viability": "9.6%"}
{"molecule": "C[C@H](N[C@@H](CCc1ccccc1)C(=O)O)C(=O)N1Cc2ccccc2C[C@H]1C(=O)O", "note": "[quinaprilat]", "percent viability": "141%"}
{"molecule": "O=C(O)c1cc(O)c(O)c(O)c1", "percent viability": "310%"}
{"molecule": "Nc1nnc(-c2cccc(Cl)c2Cl)c(N)n1", "note": "[lamotrigine]", "percent viability": "297% and 187%"}
{"molecule": "CC(C[N+](C)(C)C)OC(N)=O", "note": "(stereo not drawn) [Carbamyl-beta-methylcholine]", "percent viability": "283%"}
{"molecule": "Clc1cccc(Cl)c1NC1=NCCN1", "note": "[clonidine]", "percent viability": "232%"}
